According to paper PMC3501466:
Results are given in words; binding and its absence hold for the method and conditions named. Binding seen in cells or lysates may run through a third protein. Binding can be weak; no strength is given.

Sequences of proteins named here, by UniProt entry; tags and fusion partners are left off. A change or cut given only in a name is not applied to a line headed by its entry.
UniProt Q6ZSZ5: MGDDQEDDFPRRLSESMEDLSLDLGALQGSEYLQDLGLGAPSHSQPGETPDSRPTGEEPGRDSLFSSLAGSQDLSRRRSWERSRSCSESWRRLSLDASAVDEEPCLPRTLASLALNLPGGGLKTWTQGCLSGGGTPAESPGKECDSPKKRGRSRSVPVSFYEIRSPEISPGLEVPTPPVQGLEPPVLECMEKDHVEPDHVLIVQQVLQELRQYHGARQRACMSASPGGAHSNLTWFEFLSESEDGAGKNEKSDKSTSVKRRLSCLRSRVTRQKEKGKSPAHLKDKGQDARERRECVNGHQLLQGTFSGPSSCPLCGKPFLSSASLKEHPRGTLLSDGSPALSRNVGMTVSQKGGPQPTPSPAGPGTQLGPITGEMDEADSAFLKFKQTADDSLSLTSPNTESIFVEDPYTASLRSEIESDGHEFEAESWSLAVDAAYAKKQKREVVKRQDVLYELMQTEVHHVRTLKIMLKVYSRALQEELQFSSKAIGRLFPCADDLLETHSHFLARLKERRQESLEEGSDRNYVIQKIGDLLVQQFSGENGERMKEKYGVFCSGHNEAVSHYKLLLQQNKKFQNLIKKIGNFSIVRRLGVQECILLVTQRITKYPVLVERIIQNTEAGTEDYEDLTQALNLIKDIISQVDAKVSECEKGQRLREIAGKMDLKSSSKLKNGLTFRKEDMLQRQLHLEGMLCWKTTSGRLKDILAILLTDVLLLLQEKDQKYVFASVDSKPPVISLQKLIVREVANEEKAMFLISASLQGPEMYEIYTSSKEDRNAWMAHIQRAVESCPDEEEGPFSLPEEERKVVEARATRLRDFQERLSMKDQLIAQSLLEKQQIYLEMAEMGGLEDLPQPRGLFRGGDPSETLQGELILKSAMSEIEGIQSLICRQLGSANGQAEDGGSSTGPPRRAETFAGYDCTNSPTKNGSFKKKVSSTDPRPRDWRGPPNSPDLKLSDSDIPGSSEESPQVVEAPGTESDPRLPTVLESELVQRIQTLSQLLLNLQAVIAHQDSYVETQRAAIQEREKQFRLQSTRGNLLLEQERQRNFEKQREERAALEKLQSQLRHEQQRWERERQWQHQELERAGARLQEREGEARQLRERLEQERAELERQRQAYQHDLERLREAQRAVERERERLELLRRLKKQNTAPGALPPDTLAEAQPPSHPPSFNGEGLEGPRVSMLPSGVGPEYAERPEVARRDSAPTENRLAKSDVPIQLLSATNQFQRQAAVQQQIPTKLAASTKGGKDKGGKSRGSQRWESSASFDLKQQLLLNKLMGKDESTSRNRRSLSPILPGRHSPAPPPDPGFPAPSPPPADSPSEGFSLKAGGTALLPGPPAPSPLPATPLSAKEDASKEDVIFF
UniProt O75116: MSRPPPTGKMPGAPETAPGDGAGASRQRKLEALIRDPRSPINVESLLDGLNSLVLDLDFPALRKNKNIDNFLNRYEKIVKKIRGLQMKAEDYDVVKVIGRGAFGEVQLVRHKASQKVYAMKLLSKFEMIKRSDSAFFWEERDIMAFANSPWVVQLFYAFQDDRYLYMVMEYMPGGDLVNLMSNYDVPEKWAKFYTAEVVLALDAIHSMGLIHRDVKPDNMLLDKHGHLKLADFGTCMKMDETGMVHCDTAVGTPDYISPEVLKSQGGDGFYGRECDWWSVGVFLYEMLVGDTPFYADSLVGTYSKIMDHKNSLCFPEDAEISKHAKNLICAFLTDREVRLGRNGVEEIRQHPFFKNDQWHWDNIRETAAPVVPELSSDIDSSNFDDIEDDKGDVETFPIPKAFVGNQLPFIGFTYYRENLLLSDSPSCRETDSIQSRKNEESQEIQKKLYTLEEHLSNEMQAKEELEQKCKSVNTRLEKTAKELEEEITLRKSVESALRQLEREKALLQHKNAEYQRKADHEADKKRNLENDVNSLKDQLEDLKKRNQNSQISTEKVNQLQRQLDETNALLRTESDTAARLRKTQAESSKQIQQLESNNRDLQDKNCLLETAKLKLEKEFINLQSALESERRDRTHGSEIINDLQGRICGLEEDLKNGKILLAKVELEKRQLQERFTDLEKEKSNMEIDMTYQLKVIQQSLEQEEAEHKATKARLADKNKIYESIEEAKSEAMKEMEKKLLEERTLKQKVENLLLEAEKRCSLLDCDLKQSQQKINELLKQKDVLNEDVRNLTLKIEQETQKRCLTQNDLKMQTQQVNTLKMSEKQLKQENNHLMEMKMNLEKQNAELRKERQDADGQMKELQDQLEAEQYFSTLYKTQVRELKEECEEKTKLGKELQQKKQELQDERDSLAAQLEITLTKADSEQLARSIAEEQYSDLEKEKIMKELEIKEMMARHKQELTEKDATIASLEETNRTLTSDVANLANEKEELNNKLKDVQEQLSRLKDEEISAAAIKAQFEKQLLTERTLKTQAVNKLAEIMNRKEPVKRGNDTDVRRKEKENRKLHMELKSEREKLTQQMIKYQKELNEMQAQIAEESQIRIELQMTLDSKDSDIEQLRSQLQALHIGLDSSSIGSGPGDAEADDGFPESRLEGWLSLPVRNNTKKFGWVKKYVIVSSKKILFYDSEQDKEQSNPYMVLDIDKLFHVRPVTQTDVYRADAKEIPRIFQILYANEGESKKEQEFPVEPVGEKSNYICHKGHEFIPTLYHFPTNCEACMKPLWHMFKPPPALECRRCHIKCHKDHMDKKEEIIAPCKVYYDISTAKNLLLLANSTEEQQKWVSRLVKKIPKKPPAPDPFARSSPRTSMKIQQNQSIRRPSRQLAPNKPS
UniProt P35579: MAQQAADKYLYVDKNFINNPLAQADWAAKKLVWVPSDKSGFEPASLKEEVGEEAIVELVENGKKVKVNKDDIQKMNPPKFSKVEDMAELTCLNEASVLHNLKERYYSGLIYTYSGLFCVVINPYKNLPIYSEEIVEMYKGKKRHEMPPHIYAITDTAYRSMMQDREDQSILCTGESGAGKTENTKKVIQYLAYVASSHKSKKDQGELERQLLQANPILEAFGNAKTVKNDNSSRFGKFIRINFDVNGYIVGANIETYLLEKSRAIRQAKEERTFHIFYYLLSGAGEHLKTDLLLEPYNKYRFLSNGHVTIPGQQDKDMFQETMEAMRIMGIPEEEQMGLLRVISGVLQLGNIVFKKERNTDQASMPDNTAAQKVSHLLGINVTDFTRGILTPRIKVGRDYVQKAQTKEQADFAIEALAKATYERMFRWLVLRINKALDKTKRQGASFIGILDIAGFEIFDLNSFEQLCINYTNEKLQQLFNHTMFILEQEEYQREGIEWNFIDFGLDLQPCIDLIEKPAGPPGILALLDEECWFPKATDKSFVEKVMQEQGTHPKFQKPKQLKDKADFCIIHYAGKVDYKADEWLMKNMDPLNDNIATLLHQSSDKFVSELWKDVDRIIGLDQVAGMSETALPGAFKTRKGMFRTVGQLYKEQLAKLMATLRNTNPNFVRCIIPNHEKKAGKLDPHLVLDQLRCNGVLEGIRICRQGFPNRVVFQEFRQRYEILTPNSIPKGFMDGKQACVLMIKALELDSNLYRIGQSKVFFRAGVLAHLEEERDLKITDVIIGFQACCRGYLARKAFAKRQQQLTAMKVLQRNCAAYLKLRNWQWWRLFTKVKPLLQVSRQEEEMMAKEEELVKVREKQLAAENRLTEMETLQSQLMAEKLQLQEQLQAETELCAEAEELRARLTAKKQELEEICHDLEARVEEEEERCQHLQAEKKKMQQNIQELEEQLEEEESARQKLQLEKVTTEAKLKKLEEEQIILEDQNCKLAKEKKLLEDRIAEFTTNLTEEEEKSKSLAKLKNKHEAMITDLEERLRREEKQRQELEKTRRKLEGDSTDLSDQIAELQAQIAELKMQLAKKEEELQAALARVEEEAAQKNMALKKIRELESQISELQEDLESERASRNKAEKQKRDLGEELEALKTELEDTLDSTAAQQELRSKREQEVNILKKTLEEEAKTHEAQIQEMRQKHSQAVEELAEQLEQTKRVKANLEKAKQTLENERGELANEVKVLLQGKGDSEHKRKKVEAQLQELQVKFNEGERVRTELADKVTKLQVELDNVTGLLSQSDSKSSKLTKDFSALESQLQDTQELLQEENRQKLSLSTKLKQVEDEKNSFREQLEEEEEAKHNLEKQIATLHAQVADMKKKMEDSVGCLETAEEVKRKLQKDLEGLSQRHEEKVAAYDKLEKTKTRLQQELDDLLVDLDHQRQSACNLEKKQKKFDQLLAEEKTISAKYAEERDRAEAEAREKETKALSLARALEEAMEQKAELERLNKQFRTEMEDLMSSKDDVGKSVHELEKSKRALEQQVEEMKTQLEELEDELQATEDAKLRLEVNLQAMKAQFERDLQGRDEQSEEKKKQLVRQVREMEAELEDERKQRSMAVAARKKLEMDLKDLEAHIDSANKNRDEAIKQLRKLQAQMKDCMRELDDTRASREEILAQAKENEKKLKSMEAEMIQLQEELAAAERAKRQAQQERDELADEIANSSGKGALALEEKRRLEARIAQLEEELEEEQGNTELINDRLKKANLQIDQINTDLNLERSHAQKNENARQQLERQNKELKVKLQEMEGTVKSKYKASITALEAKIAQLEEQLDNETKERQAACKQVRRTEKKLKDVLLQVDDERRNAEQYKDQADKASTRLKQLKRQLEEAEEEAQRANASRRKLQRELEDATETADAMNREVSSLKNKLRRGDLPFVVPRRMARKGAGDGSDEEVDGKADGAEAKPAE

Legend:
[1] = target: p114RhoGEF (human (endogenous in HCE and MDA-MB-231)) (UniProt Q6ZSZ5); assay: co-IP; endogenous p114RhoGEF immunoprecipitated from MDA-MB-231 cell extracts; precipitates immunoblotted for the GEF, myosin IIA and ROCKII
[2] = target: p114RhoGEF (human (endogenous in HCE and MDA-MB-231)) (UniProt Q6ZSZ5); assay: co-IP; endogenous p114RhoGEF immunoprecipitated from extracts of confluent, stabilised HCE monolayers, either extracted directly or wounded with multiple needle scratches and re-incubated for 45 minutes; precipitates immunoblotted for the GEF and myosin IIA

| binding [1] | binding [2] | Substance |
| --- | --- | --- |
| binds |  | ROCKII (from UniProt O75116 1-1388) (enzyme) |
| binds | binds | non-muscle myosin IIA (from UniProt P35579 1-1960) |
